# According to PubChem BioAssay AID540256 (National Center for Advancing Translational Sciences (NCATS), 2011):
# Out of some 300,000 compounds screened, about 3,700 (1.2%) were called active. Inconclusive means that the source gave no clear call. Such entries were picked first, then a sample of the others. The call rests on the fitted dose curve; tested in HEK293 cells. Where the call is inconclusive, the potency comes from a doubtful curve fit.
# Assay: qHTS for Inhibitors of binding or entry into cells for Lassa Virus; further: nearly all actives have a fitted effect of over 50% in size
# Settings: Lassa virus pseudotype entry inhibition, cell reporter; series mostly up to 37.9 µM
# Potency means the concentration at half of the fitted maximal effect.
row,SMILES,Potency
1,CCOc1ccc(NC(=O)CC2C(=O)N(c3ccccc3)C(=O)N2Cc2ccc3c(c2)OCO3)cc1 (configuration not stated),inactive
2,Brc1ccc(CNCc2cccs2)cc1,inactive
3,Cc1ccc(CNC(=O)C2CCN(S(=O)(=O)c3cc(-c4noc(C)n4)ccc3C)CC2)cc1,inactive
4,CCOc1ccc(-c2nnc3ccc(SCC(=O)NCc4ccco4)nn23)cc1,inactive
5,CC(=O)c1ccc(Nc2nc(=O)c3cccnc3s2)cc1,"inconclusive: 35.5 µM [inhibitor, single point]"
6,O=C1C(Nc2ccccc2)=CC(c2ccc(Br)cc2)N1c1ccccc1 (configuration not stated),"inconclusive: 6.31 µM [inhibitor, single point]"
7,CCOC(=O)c1oc2ccccc2c1COC(=O)CNC(=O)c1cccc(C)c1,"inconclusive: 25.1 µM [activator, single point]"
8,O=C(C(=O)N1CCN(c2ccc(F)cc2)CC1)N1CCCCC1,"inconclusive: 6.31 µM [inhibitor, single point]"
9,COc1ccc(-n2ccc(=O)c(C(=O)O)n2)cc1,inactive
10,CCOc1ccccc1NC(=O)C1C2CCC(O2)C1C(=O)O (configuration not stated),"inconclusive: 11.2 µM [inhibitor, partial curve, poor fit]"
11,Cc1cc(SCC(=O)N2CCC(c3noc4ccc(F)cc34)CC2)nc2ccccc12,inactive
12,CC(C)(C)NC(=O)CN(C(=O)CCN1CCCc2ccccc21)C(C)(C)C,inactive
13,Cc1cc(C(=O)C(C)OC(=O)c2ccc(NC(=O)CC#N)cc2)c(C)n1-c1ccc(OC(F)F)cc1 (configuration not stated),active: 14.1 µM
14,CCCCCNS(=O)(=O)c1cc(C)ccc1OC,inactive
15,Cc1ccccc1OC(C)C(=O)Nc1ccc(S(=O)(=O)Nc2nccs2)cc1 (configuration not stated),"inconclusive: 7.08 µM [inhibitor, partial curve, poor fit]"
16,CC(=O)N1CCCC(C(=O)c2ccc(Oc3ccccc3)cc2)C1 (configuration not stated),inactive
17,COc1ccc(CCNc2nccn(-c3ccc(C)c(C)c3)c2=O)cc1OC,"inconclusive: 35.5 µM [inhibitor, partial curve, poor fit]"
18,COCC(C)N1CCC(Oc2ccc(C(=O)N3CCCC3)cc2)CC1 (configuration not stated),inactive
19,C/C(=N\Nc1ccccc1)c1c(O)n(-c2ccccc2)c(=O)[nH]c1=O,"inconclusive: 5.62 µM [inhibitor, partial curve, poor fit]"
20,O=C(CCl)Nc1cc2[nH]c(=O)[nH]c2cc1Br,"inconclusive: 12.6 µM [inhibitor, single point]"
21,NC1=NC2(CCCC2)N=C(Nc2ccccc2)N1,inactive
22,CCN(CC)S(=O)(=O)c1cc([N+](=O)[O-])ccc1N1CCC(C(N)=O)CC1,inactive
23,O=C(NCCN1C(=O)S/C(=C\c2ccc(Cl)c(Cl)c2)C1=O)C1COc2ccccc2O1 (configuration not stated),"inconclusive: 35.5 µM [inhibitor, single point]"
24,CC(=O)Nc1ccc(NC(=S)NC(=O)C2CCCC2)cc1,inactive

row,SMILES,Potency
1,CCOC(=O)N1CCN(CC(=O)Nc2nc3ccccc3s2)CC1,"inconclusive: 5.62 µM [inhibitor, partial curve, poor fit]"
2,Cc1ccc(Nc2nc3c(c(=O)[nH]c(=O)n3C)n2Cc2ccc(F)cc2)cc1,inactive
3,CC(C)NC(=O)c1cnc(N2CCN(c3ccccn3)CC2)c2ccccc12,"inconclusive: 10 µM [inhibitor, partial curve, poor fit]"
4,N#CC1=C(N)Oc2cc3ccccc3cc2C1c1cccs1 (configuration not stated),"inconclusive: 7.94 µM [inhibitor, partial curve, poor fit]"
5,O=C(Nc1sc2c(c1C(=O)O)CCCC2)c1ccc(F)cc1,"inconclusive: 4.47 µM [inhibitor, full curve, poor fit]"
6,COCCNC(=O)Cn1nc(-c2ccccc2F)ccc1=O,"inconclusive: 5.62 µM [inhibitor, single point]"
7,O=C(NCc1ccco1)NC12CC3CC(CC(C3)C1)C2,"inconclusive: 35.5 µM [inhibitor, partial curve, poor fit]"
8,c1ccc(C2CNCc3c2ccc2ccccc32)cc1 (configuration not stated),"inconclusive: 32.6 µM [inhibitor, single point]"
9,COc1cc(OC)c(OC)cc1/C=N/Nc1ccc(Cl)nn1,"inconclusive: 14.1 µM [inhibitor, single point]"
10,CC(C)CCN(C(=S)Nc1cccc(F)c1)C1CCN(C(C)C)CC1,"inconclusive: 12.6 µM [inhibitor, partial curve, poor fit]"
11,CCOCCCN(C(=O)Nc1ccc(Cl)cc1)C1CCN(C(C)=O)CC1,inactive
12,CN=C1NN=C(c2cc(C)n(-c3ccc(Cl)cc3)c2C)CS1,inactive
13,O=C(N/N=C/c1cc(Br)ccc1O)C(c1ccncc1)N1CCOCC1 (configuration not stated),"inconclusive: 16.4 µM [inhibitor, single point]"
14,O=C(NCC(c1ccco1)N1CCc2ccccc21)c1cccc(F)c1 (configuration not stated),inactive
15,CCc1ccc(OCC(=O)O/N=C(\N)c2ccncc2)cc1,"inconclusive: 35.5 µM [inhibitor, single point]"
16,COCCN(C(=O)CCl)C(C(=O)NC1CCCCC1)c1ccccc1C (configuration not stated),"inconclusive: 12.6 µM [inhibitor, partial curve, poor fit]"
17,COc1ccc(C)cc1NC(=O)CSc1nc2ccccc2nc1N1CCOCC1,"inconclusive: 25.1 µM [inhibitor, single point]"
18,O=C(Nc1nc2ccccc2n1CCN1CCOCC1)c1ccc(COc2ccccc2Br)o1,"inconclusive: 15.8 µM [inhibitor, single point]"
19,Cc1ccc(CN2CCC(CNC(=O)Nc3cccc(Cl)c3C)C2)cc1 (configuration not stated),inactive
20,Cc1ccc(CCNC(=O)NCc2noc3ccccc23)cc1,"inconclusive: 35.5 µM [inhibitor, single point]"
21,CCOc1cccc(C(=O)Nc2ccc3ccccc3c2)c1,"inconclusive: 2.82 µM [inhibitor, single point]"
22,CCc1ccc(CN2CCC(n3nccc3NC(=O)c3ccc4c(c3)OCO4)CC2)cc1,"inconclusive: 35.5 µM [inhibitor, single point]"
23,COc1cc(-c2nnc(SCC3(c4ccccc4)OCCO3)o2)cc(OC)c1OC,"inconclusive: 6.31 µM [inhibitor, full curve]"

# As entered above:
# Potency, COCCNC(=O)Cn1nc(-c2ccccc2F)ccc1=O is entered as inconclusive: 5.62 µM [inhibitor, single point]
# Potency, O=C(Nc1nc2ccccc2n1CCN1CCOCC1)c1ccc(COc2ccccc2Br)o1 is entered as inconclusive: 15.8 µM [inhibitor, single point]
